Laboratory results reported in publication PMC11321651, “Regulation of Glandular Size and Phytoalexin Biosynthesis by a Negative Feedback Loop in Cotton”.
No signal at the amounts used counts as a negative. At least one verdict was read from the data and is not stated in words by the source. Where a protein sequence is shown, tags need not be part of it.

Target: T1, JAVL (JAVL_A) (UniProt A0A1U8LLK1)
T1 sequence (looked up, limits assumed): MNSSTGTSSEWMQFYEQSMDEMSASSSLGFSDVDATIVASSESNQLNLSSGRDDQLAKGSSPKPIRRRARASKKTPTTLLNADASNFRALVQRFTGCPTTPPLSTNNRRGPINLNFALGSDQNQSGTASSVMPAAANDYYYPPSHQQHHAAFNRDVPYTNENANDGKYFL
Assay: competition with a labelled probe
Details: EMSA: 30 °C for 30 min, then 5% native PAGE in Tris/borate/EDTA, 10 V/cm, 4 °C, 10x and 100x cold competitor, binding buffer, salt and pH not stated, recombinant protein, protein details: His (pET32a), label: unlabeled

Sequence	binding result (unlabeled mutant competitor against N5)	binding result (unlabeled mutant competitor against N3)
AACAGGAGATTTCACATGTATAATGATGTCAA (double strand) [GoPGF promoter mutant probe]	no binding	
TTATGGCTGTAAACCATGTCGAATTCATGGAG (double strand) [AOS promoter mutant probe]		no binding
